Results are given in words; binding and its absence hold for the method and conditions named. Binding can be weak; no strength is given. Tags and fused reporters may be left off the sequences shown.
Biological target: T1, Prp2p, LexA-bait fusion (budding yeast) (UniProt P20095)
T1 sequence: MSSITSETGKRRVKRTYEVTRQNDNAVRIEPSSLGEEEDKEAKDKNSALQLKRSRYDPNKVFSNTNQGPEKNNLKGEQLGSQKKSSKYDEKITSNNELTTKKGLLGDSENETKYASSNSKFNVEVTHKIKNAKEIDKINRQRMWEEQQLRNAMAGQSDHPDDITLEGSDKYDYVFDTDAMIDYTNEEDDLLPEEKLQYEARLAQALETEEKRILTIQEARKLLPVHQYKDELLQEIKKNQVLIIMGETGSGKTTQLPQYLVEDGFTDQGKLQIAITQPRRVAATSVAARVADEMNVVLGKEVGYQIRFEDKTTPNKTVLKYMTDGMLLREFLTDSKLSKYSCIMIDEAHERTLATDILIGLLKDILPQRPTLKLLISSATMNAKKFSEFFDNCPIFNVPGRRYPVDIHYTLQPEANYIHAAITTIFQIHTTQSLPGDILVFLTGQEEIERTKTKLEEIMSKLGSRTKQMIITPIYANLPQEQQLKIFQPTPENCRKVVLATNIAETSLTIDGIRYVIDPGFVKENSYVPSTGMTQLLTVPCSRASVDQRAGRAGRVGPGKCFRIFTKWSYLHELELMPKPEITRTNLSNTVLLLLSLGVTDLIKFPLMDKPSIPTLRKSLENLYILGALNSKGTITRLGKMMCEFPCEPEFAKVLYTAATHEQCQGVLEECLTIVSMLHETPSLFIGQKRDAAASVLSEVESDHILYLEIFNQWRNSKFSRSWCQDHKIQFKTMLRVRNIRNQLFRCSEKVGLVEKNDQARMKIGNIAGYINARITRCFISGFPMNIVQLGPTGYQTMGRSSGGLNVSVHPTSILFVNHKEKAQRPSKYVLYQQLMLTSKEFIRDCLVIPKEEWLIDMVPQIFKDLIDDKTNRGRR
Assay: two-hybrid; screen of mutated H2-Sec63-2 Gal4AD-preys against LexA-bait Prp2p or Prp16p in L40ΔG yeast; HIS3 reporter, -LWH medium with different concentrations of 3-AT, 30 or 14°C; colony size compared with WT; prey plasmids re-transformed to confirm

binding: binds
Substance: Brr2 H2-Sec63-2p L2120V, Gal4AD-prey fusion (budding yeast) (domain or fragment)
